These are yes or no findings as the source states them, for the method shown. Binding seen in cells or lysates may run through a third protein. Here binding means that the protein was enriched with, or labelled near, the bait; the list need not be complete. For part of these data: A no says only that the protein was not detected with the bait.
T1: Msh4-TurboID (S. cerevisiae) (UniProt P40965)
T1 sequence: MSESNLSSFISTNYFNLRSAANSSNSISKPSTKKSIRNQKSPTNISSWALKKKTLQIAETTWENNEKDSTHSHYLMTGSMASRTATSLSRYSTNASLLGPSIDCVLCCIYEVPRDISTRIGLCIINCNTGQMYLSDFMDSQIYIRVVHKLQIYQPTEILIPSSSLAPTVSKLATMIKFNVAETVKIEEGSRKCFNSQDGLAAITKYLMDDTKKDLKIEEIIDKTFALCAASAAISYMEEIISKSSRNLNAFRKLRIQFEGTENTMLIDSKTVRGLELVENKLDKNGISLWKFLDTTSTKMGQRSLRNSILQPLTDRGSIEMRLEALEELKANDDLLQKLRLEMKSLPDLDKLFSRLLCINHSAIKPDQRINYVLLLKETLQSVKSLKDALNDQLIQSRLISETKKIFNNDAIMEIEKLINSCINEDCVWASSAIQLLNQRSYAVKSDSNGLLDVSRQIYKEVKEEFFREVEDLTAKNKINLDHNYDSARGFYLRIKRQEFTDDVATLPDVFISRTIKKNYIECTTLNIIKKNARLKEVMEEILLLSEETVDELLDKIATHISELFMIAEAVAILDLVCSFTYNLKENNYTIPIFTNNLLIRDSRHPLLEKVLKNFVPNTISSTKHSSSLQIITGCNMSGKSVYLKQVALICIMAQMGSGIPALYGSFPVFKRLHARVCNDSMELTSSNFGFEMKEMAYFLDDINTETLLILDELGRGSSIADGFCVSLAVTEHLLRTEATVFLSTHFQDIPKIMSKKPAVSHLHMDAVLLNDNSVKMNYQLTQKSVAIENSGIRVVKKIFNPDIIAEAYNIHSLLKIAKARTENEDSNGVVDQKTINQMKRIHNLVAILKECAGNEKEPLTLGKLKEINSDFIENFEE

T2: Msh5-TurboID (S. cerevisiae) (UniProt Q12175)
T2 sequence: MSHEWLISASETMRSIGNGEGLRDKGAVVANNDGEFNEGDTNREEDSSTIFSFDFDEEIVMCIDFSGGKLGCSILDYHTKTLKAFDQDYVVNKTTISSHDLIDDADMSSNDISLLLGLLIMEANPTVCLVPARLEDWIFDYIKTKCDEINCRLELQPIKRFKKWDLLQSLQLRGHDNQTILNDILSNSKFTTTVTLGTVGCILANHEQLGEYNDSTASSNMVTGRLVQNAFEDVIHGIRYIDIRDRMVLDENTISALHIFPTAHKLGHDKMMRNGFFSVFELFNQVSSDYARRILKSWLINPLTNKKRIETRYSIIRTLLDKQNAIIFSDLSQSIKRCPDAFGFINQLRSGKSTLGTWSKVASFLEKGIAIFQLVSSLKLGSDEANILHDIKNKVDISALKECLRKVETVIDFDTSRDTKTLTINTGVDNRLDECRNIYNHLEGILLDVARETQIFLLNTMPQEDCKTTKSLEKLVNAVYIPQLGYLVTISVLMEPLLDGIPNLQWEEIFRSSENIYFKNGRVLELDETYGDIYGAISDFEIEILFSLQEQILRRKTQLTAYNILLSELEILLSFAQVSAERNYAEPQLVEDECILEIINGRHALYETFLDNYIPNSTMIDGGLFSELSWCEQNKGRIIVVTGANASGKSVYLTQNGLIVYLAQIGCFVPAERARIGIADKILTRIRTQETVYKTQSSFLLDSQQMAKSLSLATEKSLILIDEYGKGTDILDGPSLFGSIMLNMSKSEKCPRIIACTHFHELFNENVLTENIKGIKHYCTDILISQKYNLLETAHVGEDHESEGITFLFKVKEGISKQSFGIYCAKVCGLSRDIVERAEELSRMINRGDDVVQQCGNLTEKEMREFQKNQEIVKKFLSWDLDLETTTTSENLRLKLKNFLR

T3: TurboID-Gmc2 (S. cerevisiae) (UniProt Q06201)
T3 sequence: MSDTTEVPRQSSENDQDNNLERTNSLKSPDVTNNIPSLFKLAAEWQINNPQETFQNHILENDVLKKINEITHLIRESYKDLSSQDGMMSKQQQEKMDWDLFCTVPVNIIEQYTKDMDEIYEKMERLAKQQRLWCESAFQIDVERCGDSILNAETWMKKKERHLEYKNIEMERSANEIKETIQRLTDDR

T4: Spo16-TurboID (S. cerevisiae) (UniProt P17122)
T4 sequence: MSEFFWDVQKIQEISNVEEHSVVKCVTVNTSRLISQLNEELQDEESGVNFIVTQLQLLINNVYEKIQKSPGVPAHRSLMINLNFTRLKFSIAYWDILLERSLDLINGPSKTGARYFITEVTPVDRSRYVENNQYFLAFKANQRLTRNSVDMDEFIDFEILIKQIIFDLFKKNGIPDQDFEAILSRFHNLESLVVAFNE

B1: Ecm11 (protein, UniProt Q04110 1-302)
chain: MTVIKTEPTTEVTLYSPPSKESLSKDDAHRKKQNNKPPSSINSRSGPNKHKLAAKAPEKKINNTDKQDLSAFLLNPSLIVKPSESKKKENIVAYNDTPGIKTEHTAFQPLTPISKKRALKEKAASEKCDSFDLSRDEKPYIQKKSKTLSSVTEINSSEYKLSLNGENTSSPAKEKSQEPIENPGSYQKTRNYLFEKPDPLDTCLQDYSSMLPSNVAEEDQEYFISVADSTLEEWTNKGQEIIDQQFQLYQEIIKKRIELSYKFKGIISVINDRADALEEQGQQLEGKIKKVKTLANEILNII
B2: Zip1 (protein, UniProt P31111 1-875)
chain: MSNFFRDSSMGFKPRPNIFAKLRVRDVDSDSSANTVVENSSNCLDVGSSIEGDDTFKKPHKTSTEQELITSMSLSQRNHGYSDDMEIGSPKKTTSTDQYNRILKNDVAAIENDTDEDFEITEVREVSEGVAKETKESHGDPNDSETTLKDSKMHEYTMTNGKAPLHTSINNSSTSSNDVLLEAFTNTQRICSNLKQELQKQQQDNAKLKVRLQSYASNSDKINEKVGKYKSCLETLQERIATLTSHKNNQETKLKDLRQNHQLYQRRISGFKTSIENLNKTINDLGKNKKEADAELMKKGKEIEYLKRELDDCSGQLSEEKIKNSSLIQEMGKNREEMIKSIENFFSEDKAHHLLQFNKFEERVHDLFEKKLQKHFDVAKDTLNVGLRNTTVELSSNTETMLKQQYEDIKENLEQKMSSSKDEMAKTINELSVTQKGLIMGVQEELLTSSGNIQTALVSEMNNTRQELLDDASQTAKNYASLENLVKAYKAEIVQSNEYEERIKHLESERSTLSSQKNQIISSLGTKEAQYEDLVKKLEAKNIEISQISGKEQSLTEKNENLSNELKKVQDQLEKLNNLNITTKSNYENKISSQNEIVKALVSENDTLKQRIQQLVEIKENEQKDHTTKLEAFQKNNEQLQKLNVEVVQLKAHELELEEQNRHLKNCLEKKETGVEESLSDVKTLKQQVIVLKSEKQDITAEKLELQDNLESLEEVTKNLQQKVQSQKRELEQKIKELEEIKNHKRNEPSKKGTQNFTKPSDSPKKNATTSNLFPNNSAAIHSPMKKCPKVDHISKSRINSSKETSKFNDEFDLSSSSNDDLELTNPSPIQIKPVRGKIKKGSNCMKPPISSRKKLLLVEDEDQSLKISKKRRRK

What was measured:
[1] = target: T1, Msh4-TurboID (S. cerevisiae); assay: proximity labelling; TurboID fusion allele (homozygous, or heterozygous where said) in ndt80 diploid cells, 24 h in sporulation medium, endogenous biotin; TCA extract, 8% or 12% SDS-PAGE, streptavidin:HRP blot; also done in mutant backgrounds in which the labelling was kept
[2] = target: T2, Msh5-TurboID (S. cerevisiae); assay: as above
[3] = target: Zip4iTurboID (S. cerevisiae); assay: as above
[4] = target: Zip4[N919Q]iTurboID (S. cerevisiae); assay: as above
[5] = target: T3, TurboID-Gmc2 (S. cerevisiae); assay: as above
[6] = target: T4, Spo16-TurboID (S. cerevisiae); assay: proximity labelling; eleven TurboID fusion strains (ndt80, homozygous) and a no-TurboID control, ~24 h sporulation, two replicates; TCA extract, streptavidin-sepharose pull-down, trypsin, UPLC-MS/MS; targets = in both replicates and in neither control

Row | Binder | binding [1] | binding [2] | binding [3] | binding [4] | binding [5] | binding [6]
1 | B1 | binds | binds weakly | binds | no binding | binds | –
2 | B2 | – | – | – | – | – | binds
